This note sets out measurements from publication PMC7819943, “Rice protein-binding microarrays: a tool to detect cis-acting elements near promoter regions in rice”.

The other results are listed elsewhere or left out.

The target in this experiment is T1, OsSMF1 (Oryza sativa, UniProt Q6ZLB0 1-436).
T1 sequence: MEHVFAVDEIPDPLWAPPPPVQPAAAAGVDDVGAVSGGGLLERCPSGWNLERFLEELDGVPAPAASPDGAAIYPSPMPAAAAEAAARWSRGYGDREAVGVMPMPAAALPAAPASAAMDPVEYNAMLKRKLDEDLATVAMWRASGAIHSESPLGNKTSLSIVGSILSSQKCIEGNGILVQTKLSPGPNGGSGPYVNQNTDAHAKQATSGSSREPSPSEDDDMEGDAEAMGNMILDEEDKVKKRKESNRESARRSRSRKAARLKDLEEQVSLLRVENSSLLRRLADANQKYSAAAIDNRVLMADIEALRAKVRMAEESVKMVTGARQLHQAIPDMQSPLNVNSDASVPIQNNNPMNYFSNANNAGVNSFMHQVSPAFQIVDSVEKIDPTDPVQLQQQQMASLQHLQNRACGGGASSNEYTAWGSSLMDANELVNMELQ
The experiment can be described thus: protein-binding microarray (RPBM); PBS, 2% BSA, 51.3 ng/ul salmon testes DNA, 50 uM zinc acetate, 200 nM TF, 25 C, 1 h; high values mean tight binding. Conditions: protein: recombinant; tags: N-terminal polyhistidine and DsRed monomer fusion (pET32a); chain copies: 2; label: CyDye5-dUTP incorporated in the synthesized complementary strand; 3' TTTTT single-stranded linker to array surface; dsDNA, one strand shown. The essentials: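 The binding signal is fluorescence intensity per array feature (arbitrary units). Readings came from an Axon 4000B scanner after a washed, 2% BSA-blocked, double-stranded custom Agilent array had been incubated for 1 h at 25 °C with 200 nM protein and 50 µM zinc acetate. The protein was a Ni–NTA-purified transcription factor fused N-terminally to polyhistidine and DsRed, expressed in E. coli BL21-CodonPlus.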
For “GACCTCGCCTGCCGCCATCGTCGCTGACATCATCACCATCCGGAGTCACCTAGTGCAG”, the binding signal is 13700 fluorescence intensity (a.u.).
The same measure for “CAACCAGCGTGATAGTTTTGTCCTGTCACGTGGCGTGACCCGGAGTCACCTAGTGCAG”: 5520 fluorescence intensity (a.u.); for “ATATATGGTATAGTATCTCTCGAGTCACACTTGACAGTGACGGAGTCACCTAGTGCAG”: 31500 fluorescence intensity (a.u.).
The same measure for “TCGGGCCCACTAAAACTTCGTCATCACGGATACACTATTTCGGAGTCACCTAGTGCAG”: 4780 fluorescence intensity (a.u.); for “GAGGAGGAGGAACTCACCGATCTGGGCGGGTGCAGCGCAACGGAGTCACCTAGTGCAG”: 3200 fluorescence intensity (a.u.).
The same measure for “GAAGATGATGACATCCGACATGCCTATGATTTTCACTCGACGGAGTCACCTAGTGCAG”: 3520 fluorescence intensity (a.u.); for “GGCTGTGACAGCTTGCGCCAGTTTGGTTCGGAACAATTTGCGGAGTCACCTAGTGCAG”: 3360 fluorescence intensity (a.u.).
Take “GGGAGTGGGCCGGCCCAGCTGAGAGGAGGGCGGGCGCGCGCGGAGTCACCTAGTGCAG”: the binding signal is 3180 fluorescence intensity (a.u.).
Regarding “TCCCGTGTTCTTGTTCTTCTCTGGTGATCATCATCATCATCGGAGTCACCTAGTGCAG”, the binding signal is 3980 fluorescence intensity (a.u.).
As to “GTAGCCAAGTACATTGTCGGTGTCTGCCGTCTGCGTGGCACGGAGTCACCTAGTGCAG”, the binding signal was 6760 fluorescence intensity (a.u.).
As for “TTCTACGGACCATTCCATATTGACACGTAGCCTGATGCCTCGGAGTCACCTAGTGCAG”, the binding signal is 9950 fluorescence intensity (a.u.).
The same measure for “TCCTATACTTAATTACATGACATGTCCTAACAGAATTCTTCGGAGTCACCTAGTGCAG”: 3320 fluorescence intensity (a.u.); for “AAACAAGGACAATTAATTAAAAGGACTAAAGGGATGAAAACGGAGTCACCTAGTGCAG”: 36300 fluorescence intensity (a.u.); for “AAGTAGCAAGTAGAGAAGCTGCATTGTCATAGCAAAACCGCGGAGTCACCTAGTGCAG”: 3530 fluorescence intensity (a.u.).
On to “GGTCCCGCCGTGCTTAGCCGATTACTATTGGGTATGTGGTCGGAGTCACCTAGTGCAG”, for which the binding signal was 4570 fluorescence intensity (a.u.).
The same measure for “GTGAATACATGAAGCCTGAAGTTTGTTTGTCAGCAACGGGCGGAGTCACCTAGTGCAG”: 3310 fluorescence intensity (a.u.); for “ACTCGCCTGGAAACCGTGAGATGAATTTATTAAGCCTAATCGGAGTCACCTAGTGCAG”: 3930 fluorescence intensity (a.u.).
The same measure for “AAACCCTCGCCACCACGCGTCTCCGCCTCCGGCGGCGGCGCGGAGTCACCTAGTGCAG”: 3140 fluorescence intensity (a.u.); for “GGTCCGCGACACTACTTAGATGTGCACACGAATGCCCTAGCGGAGTCACCTAGTGCAG”: 3430 fluorescence intensity (a.u.); for “AGTATGAAAGACCTGAGGATGACCCGGATTATATTCCTATCGGAGTCACCTAGTGCAG”: 3320 fluorescence intensity (a.u.).
The same measure for “GTGGGTCCCACGCTGAGTCAGCTGCCACGTCGGACAAAACCGGAGTCACCTAGTGCAG”: 33200 fluorescence intensity (a.u.); for “TAAACTTTTACAAGCAATTATCTTGACCGTTTAATTTAAGCGGAGTCACCTAGTGCAG”: 17200 fluorescence intensity (a.u.); for “TGCGCGAGCTTGGACACGTACTGGAACGTCTTGACCAGCTCGGAGTCACCTAGTGCAG”: 3870 fluorescence intensity (a.u.).
Take “GGTCCATCTCTCCCGCAATCCAACGCGTGCGCGGTGCGCCCGGAGTCACCTAGTGCAG”: the binding signal was 27300 fluorescence intensity (a.u.).
Regarding “TCCCTTCCCTTGTGGCGGCAGTGGCGAAGGTACCTACGTTCGGAGTCACCTAGTGCAG”, the binding signal is 3440 fluorescence intensity (a.u.).
The same measure for “TGTTTTGTCACATCAGTTGTGCTGGTGTGGCTAAAATGTTCGGAGTCACCTAGTGCAG”: 3430 fluorescence intensity (a.u.); for “GGGCTTGTGGCGCACGCGCCTGACACGTGCGCAGCGTCCGCGGAGTCACCTAGTGCAG”: 9700 fluorescence intensity (a.u.).
The same measure for “GGTGACCCACCGTCAAATGCTTGCTCGTCGCGTGGAGAACCGGAGTCACCTAGTGCAG”: 4430 fluorescence intensity (a.u.).
The same measure for “ACGAAAACCAACACATCACCAACTGCTCAGGCATAATTGCCGGAGTCACCTAGTGCAG”: 3150 fluorescence intensity (a.u.).
Regarding “CGCTCGTCGCCGATCCCATCCTCCCCGCGAGCGATCCGGGCGGAGTCACCTAGTGCAG”, the binding signal was 3140 fluorescence intensity (a.u.).
The same measure for “AACTGCAGCAATATCACTCCCTCCAAATCAGCACATGCATCGGAGTCACCTAGTGCAG”: 3560 fluorescence intensity (a.u.); for “CACCCGTCCAAACTGGACACATCACCGCCAGAAGGCGCGGCGGAGTCACCTAGTGCAG”: 5670 fluorescence intensity (a.u.); for “CATTGACCGCGATCCGCTCCAATCCGCCGCGTCGTGCGCGCGGAGTCACCTAGTGCAG”: 4000 fluorescence intensity (a.u.).
The same measure for “CTAATTAATTTGTTCCCTTAATTGGCACTTTGAATCTAAGCGGAGTCACCTAGTGCAG”: 3730 fluorescence intensity (a.u.); for “CGTAGCTCCGCACGTGCGTCGCTGCGCCACCGGCCGGCCACGGAGTCACCTAGTGCAG”: 3490 fluorescence intensity (a.u.).
For the sequence “AGCCCATCGAACGACCCACCTACGTACGCCGCGTGGTCCTCGGAGTCACCTAGTGCAG”, the binding signal is 4320 fluorescence intensity (a.u.).
“TCCTCCTCTTCTTCTTCTCTGTCCGTCGTTCCAAATCTGTCGGAGTCACCTAGTGCAG”: the binding signal is 3150 fluorescence intensity (a.u.).
The same measure for “GTTCCGGCGGCAGGATGACGGTCCAGATCGACGGCACGCTCGGAGTCACCTAGTGCAG”: 3910 fluorescence intensity (a.u.); for “TGCTCCTACTTGCTCTCTCCCTCTTTTCCAAAAGGAGCTCCGGAGTCACCTAGTGCAG”: 3800 fluorescence intensity (a.u.).
For “TTAGGTGGTCCCACACGTCATGCTCTTCCCGTCTTCCACTCGGAGTCACCTAGTGCAG”, the binding signal is 8890 fluorescence intensity (a.u.).
“TGGTATTACAAGTGTAGTGATGTATGCATGTCTATTGTATCGGAGTCACCTAGTGCAG”: the binding signal was 3500 fluorescence intensity (a.u.).
As to “AGTATAAAAGACAGAAAACATTTGCTCTATTTGATGACACCGGAGTCACCTAGTGCAG”, the binding signal was 33500 fluorescence intensity (a.u.).
